Protein sequences, listed by entry. Tags and fused reporters are not part of them. Lines headed by an entry give the natural chain unless they say otherwise; changes in a name come on top.
UniProt P49841: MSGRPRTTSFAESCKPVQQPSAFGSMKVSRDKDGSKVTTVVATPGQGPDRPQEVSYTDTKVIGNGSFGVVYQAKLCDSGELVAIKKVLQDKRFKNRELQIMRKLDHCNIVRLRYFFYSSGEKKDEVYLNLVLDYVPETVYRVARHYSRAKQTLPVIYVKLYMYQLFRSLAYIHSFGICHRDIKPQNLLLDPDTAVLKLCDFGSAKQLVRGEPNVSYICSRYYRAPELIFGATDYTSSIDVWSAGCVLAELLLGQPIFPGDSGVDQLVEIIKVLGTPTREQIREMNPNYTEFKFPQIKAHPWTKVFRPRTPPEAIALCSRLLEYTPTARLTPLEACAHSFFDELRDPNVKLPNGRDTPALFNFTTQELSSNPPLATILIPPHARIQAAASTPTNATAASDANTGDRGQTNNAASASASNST

Some of these results come from one statement about several compounds together.
These molecules were tested against human GSK3β (Homo sapiens, UniProt P49841) (assay: Cell-free GSK3 kinase assay (33P-ATP, biotinylated CREB peptide)). Settings: read-out: IC50 with respect to GSK3.
Assay type: biochemical
In the case of `CN1CCN(c2ccc(NCCNc3ccc([N+](=O)[O-])c(N)n3)cc2-c2ccc(Cl)cc2Cl)C(=O)C1` [Example 11, 1-[5-({2-[(6-amino-5-nitropyridin-2-yl)amino]ethyl}amino)-2′,4′-dichloro-1,1′-biphenyl-2-yl]-4-methylpiperazin-2-one], the IC50 is reported as ≤ 1 µM.
With `CN(CCNc1ccc([N+](=O)[O-])c(N)n1)c1ccc([N+](=O)[O-])c(-c2ccc(Cl)cc2Cl)c1` [Example 10, N˜6˜-{2-[(2′,4′-dichloro-6-nitro-1,1′-biphenyl-3-yl)(methyl)amino]ethyl}-3-nitropyridine-2,6-diamine] the IC50 was ≤ 1 µM.
With `Nc1nc(NCCNc2ccc([N+](=O)[O-])c(-c3ccc(Cl)cc3Cl)c2)ccc1[N+](=O)[O-]` [Example 4, N˜6˜-{2-[(2′,4′-dichloro-6-nitro-1,1′-biphenyl-3-yl)amino]ethyl}-3-nitropyridine-2,6-diamine] the IC50 was ≤ 1 µM.
In the case of `O=[N+]([O-])c1ccc(NCCNc2ccc([N+](=O)[O-])c(-c3ccc(Cl)cc3Cl)c2)nc1` [Example 3, N-(2′,4′-dichloro-6-nitro-1,1′-biphenyl-3-yl)-N′-(5-nitropyridin-2-yl)ethane-1,2-diamine], the IC50 is reported as ≤ 1 µM.
In the case of `N#Cc1ccc(NCCNc2ccc([N+](=O)[O-])c(-c3ccc(Cl)cc3Cl)c2)nc1` [Example 5, 6-({2-[(2′,4′-dichloro-6-nitro-1,1′-biphenyl-3-yl)amino]ethyl}amino)nicotinonitrile], the IC50 is reported as ≤ 1 µM.
`CNCC(=O)Nc1ccc(NCCNc2ccc(C#N)cn2)cc1-c1ccc(Cl)cc1Cl` [Example 8, N˜1˜-[2′,4′-dichloro-5-({2-[(5-cyanopyridin-2-yl)amino]ethyl}amino)-1,1′-biphenyl-2-yl]-N˜2˜-methylglycinamide] was tested, and the IC50 was ≤ 1 µM.
In the case of `CC(=O)Nc1ccc(NCCNc2ccc(C#N)cn2)cc1-c1ccc(Cl)cc1Cl` [Example 6, N-[2′,4′-dichloro-5-({2-[(5-cyanopyridin-2-yl)amino]ethyl}amino)-1,1′-biphenyl-2-yl]acetamide], the IC50 is reported as ≤ 1 µM.
`CN(CCNc1ccc([N+](=O)[O-])cn1)c1ccc([N+](=O)[O-])c(-c2ccc(Cl)cc2Cl)c1` [Example 9, N-(2′,4′-dichloro-6-nitro-1,1′-biphenyl-3-yl)-N-methyl-N′-(5-nitropyridin-2-yl)ethane-1,2-diamine] was tested, and the IC50 was ≤ 1 µM.
With `N#Cc1ccc(NCCNc2ccc(N)c(-c3ccc(Cl)cc3Cl)c2)nc1` [Example 7, 6-({2-[(6-amino-2′,4′-dichloro-1,1′-biphenyl-3-yl)amino]ethyl}amino)nicotinonitrile] the IC50 was ≤ 1 µM.

Reference: patent US6989382B2, “Carbocycle based inhibitors of glycogen synthase kinase 3” (Chiron Corporation, priority 2002, dated 2006)
